Assay results taken from the supplement of paper PMC10849652.
Some of the results follow.

By UniProt entry, the sequences of proteins in these tests, tags left out. Where a name states a change or a piece, a line headed by the entry shows the natural chain unless it says otherwise.
UniProt P35227: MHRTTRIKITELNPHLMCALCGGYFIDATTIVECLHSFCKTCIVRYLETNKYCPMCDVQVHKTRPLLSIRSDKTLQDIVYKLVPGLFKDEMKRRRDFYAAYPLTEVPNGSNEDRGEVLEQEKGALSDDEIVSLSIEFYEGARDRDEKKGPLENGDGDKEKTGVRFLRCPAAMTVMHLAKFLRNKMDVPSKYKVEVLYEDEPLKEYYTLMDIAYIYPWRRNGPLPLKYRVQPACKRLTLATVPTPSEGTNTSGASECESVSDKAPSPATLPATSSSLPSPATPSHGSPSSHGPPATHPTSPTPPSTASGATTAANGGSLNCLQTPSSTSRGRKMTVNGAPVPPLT
UniProt Q9NVE7: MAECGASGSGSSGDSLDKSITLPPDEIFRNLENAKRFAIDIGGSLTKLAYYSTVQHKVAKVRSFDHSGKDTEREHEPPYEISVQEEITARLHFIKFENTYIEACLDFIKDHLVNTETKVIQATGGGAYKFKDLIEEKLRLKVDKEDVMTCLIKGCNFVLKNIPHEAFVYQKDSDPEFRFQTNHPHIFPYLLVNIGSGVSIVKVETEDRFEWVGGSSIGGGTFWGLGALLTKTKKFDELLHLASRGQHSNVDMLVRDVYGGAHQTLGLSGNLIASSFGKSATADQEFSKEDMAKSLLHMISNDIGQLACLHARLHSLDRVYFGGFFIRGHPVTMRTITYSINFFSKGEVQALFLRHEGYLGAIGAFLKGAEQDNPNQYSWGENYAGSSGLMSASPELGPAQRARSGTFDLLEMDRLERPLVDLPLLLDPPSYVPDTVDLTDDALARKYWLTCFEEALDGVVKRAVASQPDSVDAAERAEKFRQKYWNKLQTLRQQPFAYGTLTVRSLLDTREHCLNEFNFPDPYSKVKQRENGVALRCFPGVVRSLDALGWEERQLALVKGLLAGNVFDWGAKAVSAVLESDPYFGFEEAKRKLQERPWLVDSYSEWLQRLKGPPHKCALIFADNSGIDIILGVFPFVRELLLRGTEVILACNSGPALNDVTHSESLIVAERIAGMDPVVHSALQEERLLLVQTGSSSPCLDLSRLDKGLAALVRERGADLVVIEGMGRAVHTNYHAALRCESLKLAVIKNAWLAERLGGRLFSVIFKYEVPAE
UniProt Q9H999: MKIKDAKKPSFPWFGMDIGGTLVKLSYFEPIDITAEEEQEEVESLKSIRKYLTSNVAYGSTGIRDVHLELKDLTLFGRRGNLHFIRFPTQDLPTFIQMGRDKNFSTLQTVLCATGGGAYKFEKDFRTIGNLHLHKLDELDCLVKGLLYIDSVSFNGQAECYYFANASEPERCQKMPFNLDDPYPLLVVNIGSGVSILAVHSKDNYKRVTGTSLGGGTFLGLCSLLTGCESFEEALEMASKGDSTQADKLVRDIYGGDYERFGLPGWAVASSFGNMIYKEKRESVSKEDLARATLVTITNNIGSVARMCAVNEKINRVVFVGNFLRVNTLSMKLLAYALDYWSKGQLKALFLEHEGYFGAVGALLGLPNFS
UniProt P11498: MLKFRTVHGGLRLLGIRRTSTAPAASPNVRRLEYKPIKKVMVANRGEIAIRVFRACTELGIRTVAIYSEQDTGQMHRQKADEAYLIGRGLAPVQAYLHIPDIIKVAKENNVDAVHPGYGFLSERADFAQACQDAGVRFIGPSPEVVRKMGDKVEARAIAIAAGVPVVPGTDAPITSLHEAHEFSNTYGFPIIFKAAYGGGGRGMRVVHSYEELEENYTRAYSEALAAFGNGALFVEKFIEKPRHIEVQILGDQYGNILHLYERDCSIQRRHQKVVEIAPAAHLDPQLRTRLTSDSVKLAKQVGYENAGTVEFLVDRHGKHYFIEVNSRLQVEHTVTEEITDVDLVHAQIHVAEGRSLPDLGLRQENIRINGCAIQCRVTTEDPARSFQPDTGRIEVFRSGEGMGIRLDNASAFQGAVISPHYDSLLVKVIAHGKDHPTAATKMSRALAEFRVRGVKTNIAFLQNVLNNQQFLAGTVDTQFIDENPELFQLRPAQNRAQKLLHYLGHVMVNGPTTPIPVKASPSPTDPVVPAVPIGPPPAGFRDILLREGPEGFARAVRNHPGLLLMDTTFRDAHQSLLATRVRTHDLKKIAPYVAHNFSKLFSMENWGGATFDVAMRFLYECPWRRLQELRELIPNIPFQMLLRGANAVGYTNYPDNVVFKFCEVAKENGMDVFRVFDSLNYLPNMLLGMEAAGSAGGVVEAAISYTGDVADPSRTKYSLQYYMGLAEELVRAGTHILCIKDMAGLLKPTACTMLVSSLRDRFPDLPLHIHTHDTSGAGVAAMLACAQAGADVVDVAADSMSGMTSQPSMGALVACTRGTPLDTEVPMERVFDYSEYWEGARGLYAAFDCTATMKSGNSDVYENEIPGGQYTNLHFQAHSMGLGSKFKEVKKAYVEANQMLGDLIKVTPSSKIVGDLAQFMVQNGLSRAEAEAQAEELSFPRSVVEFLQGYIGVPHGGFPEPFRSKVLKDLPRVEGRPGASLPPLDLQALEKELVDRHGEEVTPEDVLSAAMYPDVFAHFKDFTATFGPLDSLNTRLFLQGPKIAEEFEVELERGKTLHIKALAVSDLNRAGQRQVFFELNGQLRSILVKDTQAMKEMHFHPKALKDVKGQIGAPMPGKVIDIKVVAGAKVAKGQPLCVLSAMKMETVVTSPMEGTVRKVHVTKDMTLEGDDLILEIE
UniProt Q9BRP1: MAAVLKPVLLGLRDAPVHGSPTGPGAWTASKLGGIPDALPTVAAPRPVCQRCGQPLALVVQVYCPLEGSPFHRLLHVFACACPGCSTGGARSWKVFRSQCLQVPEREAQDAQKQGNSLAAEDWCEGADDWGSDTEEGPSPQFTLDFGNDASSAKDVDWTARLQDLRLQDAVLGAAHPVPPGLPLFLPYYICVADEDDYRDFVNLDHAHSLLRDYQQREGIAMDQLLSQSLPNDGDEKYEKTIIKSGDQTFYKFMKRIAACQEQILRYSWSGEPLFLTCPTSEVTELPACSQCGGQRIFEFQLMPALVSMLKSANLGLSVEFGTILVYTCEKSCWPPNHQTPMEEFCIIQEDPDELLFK
UniProt Q29RF7: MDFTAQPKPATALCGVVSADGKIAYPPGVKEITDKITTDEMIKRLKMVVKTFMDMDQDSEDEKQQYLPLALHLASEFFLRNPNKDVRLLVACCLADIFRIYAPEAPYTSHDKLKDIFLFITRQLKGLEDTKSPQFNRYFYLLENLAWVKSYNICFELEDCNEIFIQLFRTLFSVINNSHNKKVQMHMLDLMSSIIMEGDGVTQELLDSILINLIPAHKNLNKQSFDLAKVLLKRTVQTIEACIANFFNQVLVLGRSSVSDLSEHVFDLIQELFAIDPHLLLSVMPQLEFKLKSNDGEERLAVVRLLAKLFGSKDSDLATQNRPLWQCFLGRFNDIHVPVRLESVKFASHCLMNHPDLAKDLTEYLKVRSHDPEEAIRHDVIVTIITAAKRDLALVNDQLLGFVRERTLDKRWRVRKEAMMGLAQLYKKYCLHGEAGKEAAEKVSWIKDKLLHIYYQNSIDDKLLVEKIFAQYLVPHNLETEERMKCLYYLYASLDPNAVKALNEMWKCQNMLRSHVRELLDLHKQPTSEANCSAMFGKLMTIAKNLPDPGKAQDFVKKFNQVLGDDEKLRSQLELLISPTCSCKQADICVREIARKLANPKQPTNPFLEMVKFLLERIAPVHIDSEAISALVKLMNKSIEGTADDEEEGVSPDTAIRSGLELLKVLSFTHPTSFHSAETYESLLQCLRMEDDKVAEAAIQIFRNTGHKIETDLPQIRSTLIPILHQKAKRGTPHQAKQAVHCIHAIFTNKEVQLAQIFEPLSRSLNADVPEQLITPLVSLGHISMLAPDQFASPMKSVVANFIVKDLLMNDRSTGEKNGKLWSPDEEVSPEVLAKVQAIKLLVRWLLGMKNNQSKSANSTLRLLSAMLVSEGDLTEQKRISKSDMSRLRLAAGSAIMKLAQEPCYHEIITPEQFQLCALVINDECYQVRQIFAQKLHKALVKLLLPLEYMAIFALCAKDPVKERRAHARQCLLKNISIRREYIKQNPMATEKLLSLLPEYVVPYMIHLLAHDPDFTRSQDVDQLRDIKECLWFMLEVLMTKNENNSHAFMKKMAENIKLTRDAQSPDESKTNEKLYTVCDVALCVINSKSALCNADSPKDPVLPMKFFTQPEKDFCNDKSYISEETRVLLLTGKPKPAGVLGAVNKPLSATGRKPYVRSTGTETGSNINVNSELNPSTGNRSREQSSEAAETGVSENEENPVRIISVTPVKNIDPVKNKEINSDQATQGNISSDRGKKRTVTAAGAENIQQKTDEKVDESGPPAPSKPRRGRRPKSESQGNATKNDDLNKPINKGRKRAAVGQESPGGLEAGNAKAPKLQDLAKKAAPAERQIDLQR
UniProt O96011, whole entry, looked up, stated change not applied: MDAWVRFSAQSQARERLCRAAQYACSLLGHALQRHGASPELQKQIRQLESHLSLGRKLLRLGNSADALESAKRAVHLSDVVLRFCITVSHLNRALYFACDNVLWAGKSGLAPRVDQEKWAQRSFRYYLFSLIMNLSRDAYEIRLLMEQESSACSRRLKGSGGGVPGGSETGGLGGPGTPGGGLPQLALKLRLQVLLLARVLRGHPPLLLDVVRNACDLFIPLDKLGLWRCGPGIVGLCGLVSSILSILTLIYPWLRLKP
UniProt P40425: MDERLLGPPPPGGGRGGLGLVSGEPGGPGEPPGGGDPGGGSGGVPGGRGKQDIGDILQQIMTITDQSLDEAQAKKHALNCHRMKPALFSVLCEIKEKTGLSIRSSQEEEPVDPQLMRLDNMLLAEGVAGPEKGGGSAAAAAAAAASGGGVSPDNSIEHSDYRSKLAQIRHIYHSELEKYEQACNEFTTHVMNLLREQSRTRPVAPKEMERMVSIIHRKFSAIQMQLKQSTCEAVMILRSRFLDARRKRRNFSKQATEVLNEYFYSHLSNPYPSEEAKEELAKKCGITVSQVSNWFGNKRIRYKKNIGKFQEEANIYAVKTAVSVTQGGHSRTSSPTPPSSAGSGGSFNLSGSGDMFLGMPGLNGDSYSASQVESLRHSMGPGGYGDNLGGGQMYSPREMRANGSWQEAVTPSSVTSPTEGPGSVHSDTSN
UniProt Q15102: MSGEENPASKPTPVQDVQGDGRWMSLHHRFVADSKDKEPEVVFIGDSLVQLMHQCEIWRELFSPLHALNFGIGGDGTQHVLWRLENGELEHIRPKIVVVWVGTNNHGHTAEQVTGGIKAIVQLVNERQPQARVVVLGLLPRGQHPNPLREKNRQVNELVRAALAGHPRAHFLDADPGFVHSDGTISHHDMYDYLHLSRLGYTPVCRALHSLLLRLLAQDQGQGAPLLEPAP
UniProt Q8IZL8: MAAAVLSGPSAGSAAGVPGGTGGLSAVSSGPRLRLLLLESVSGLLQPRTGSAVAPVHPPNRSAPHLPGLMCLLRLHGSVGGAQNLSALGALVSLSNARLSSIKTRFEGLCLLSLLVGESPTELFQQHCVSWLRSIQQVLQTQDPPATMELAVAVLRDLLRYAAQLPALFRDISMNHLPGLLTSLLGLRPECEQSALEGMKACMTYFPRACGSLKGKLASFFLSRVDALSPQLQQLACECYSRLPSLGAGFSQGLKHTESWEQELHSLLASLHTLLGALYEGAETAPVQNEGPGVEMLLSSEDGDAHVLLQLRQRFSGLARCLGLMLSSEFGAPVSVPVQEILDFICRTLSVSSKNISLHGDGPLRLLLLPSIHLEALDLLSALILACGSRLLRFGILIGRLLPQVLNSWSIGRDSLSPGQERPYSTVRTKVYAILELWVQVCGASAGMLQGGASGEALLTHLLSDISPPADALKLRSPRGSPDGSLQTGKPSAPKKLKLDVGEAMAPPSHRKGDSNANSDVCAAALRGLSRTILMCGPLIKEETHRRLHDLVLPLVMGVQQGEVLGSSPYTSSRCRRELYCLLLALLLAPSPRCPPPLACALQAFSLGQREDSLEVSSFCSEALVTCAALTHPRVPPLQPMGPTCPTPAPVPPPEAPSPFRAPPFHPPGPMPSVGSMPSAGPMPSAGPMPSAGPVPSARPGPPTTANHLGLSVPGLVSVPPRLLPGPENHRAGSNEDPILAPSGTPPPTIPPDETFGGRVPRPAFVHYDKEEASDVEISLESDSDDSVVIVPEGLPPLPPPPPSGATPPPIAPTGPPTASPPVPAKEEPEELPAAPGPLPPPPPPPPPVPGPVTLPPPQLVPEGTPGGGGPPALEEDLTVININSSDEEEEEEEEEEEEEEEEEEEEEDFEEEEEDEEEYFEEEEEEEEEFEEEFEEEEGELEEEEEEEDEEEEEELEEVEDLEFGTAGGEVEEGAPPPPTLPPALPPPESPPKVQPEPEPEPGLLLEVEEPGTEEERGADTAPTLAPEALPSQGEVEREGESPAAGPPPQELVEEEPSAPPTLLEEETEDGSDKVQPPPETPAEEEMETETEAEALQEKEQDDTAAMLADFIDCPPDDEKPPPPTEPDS

How the values were obtained:
Assay in all cases: log2 fold change, soluble protein after heating vs DMSO (PISA); higher = thermal stabilisation; K562 cells, 10 uM, 30 min; active = over 0.2 and 3.5 SD of the protein, either way, in both replicates (recomputed)
[1] = compound: CN1CCN(CCOc2cc(OC3CCOCC3)c3c(Nc4c(Cl)ccc5c4OCO5)ncnc3c2)CC1 [saracatinib]
Method in brief: (§1)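 For each measurement, 10 μM compound was applied for 30 min to K562 cells at 2×10^6 cells/mL. Aliquots were heated for 3 min across 48°C-58°C, pooled, and extracted in PBS with 0.5% NP-40 at 4°C; the supernatant after 21,000xg for 90 min was soluble protein. This was quantified by TMTpro 16plex LC-MS/MS with channel sums equalised, and thermal stability was reported relative to control samples from duplicates, on a log2 fold-change scale.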

[2] = compound: CN1CCN(c2nc(C3=C(c4c[nH]c5ccccc45)C(=O)NC3=O)c3ccccc3n2)CC1 [sotrastaurin]
Method in brief: as §1

[3] = compound: CN1CCc2c(c3ccccc3n2Cc2ccc(C(=O)NO)cc2)C1 [Tubastatin A]
Method in brief: as §1

[4] = compound: CNC(=O)C1=CC=CC=C1NC2=NC(=NC=C2Cl)NC3=C(C=C(C=C3)N4CCOCC4)OC
Method in brief: as §1

[5] = compound: CNC(=O)c1ccc(Nc2ncc(C(F)(F)F)c(NCc3nccnc3N(C)S(C)(=O)=O)n2)cc1 [defactinib]
Method in brief: as §1

[6] = compound: CNCc1ccc(-c2[nH]c3cc(F)cc4c3c2CCNC4=O)cc1 [rucaparib]
Method in brief: as §1

[7] = compound: CNc1nc(-c2ccc3c(N)n[nH]c3c2)cc(N2C[C@@H](C(=O)NC3CCCCC3)CC[C@H]2C)n1
Method in brief: as §1

[8] = compound: COC(=O)N[C@@H](C)CNc1nccc(-c2cn(C(C)C)nc2-c2cc(Cl)cc(NS(C)(=O)=O)c2F)n1 [encorafenib]
Method in brief: as §1

[9] = compound: COC(=O)[C@H](CCSC)NC(=O)C1=C(C=C(C=C1)NC[C@H](CS)N)C2=CC=CC=C2
Method in brief: as §1

[10] = compound: COC1=CC=C(C=C1)CN2C=CC3=C2C=C(C=C3)C(=O)NO
Method in brief: as §1

[11] = compound: CON(C)C(=O)N1N=C(c2cc(F)ccc2F)S[C@@]1(CCCN)c1ccccc1 [filanesib]
Method in brief: as §1

[12] = compound: CO[C@H]1C[C@@H]2CC[C@@H](C)[C@@](O)(O2)C(=O)C(=O)N2CCCC[C@H]2C(=O)O[C@H]([C@H](C)C[C@@H]2CC[C@H](n3cnnn3)[C@H](OC)C2)CC(=O)[C@H](C)/C=C(\C)[C@@H](O)[C@@H](OC)C(=O)[C@H](C)C[C@H](C)/C=C/C=C/C=C/1C [zotarolimus]
Method in brief: as §1

[13] = compound: COc1cc(C(=O)O)ccc1NC(=O)[C@@H]1N[C@@H](CC(C)(C)C)[C@](C#N)(c2ccc(Cl)cc2F)[C@H]1c1cccc(Cl)c1F [idasanutlin]
Method in brief: as §1

[14] = compound: COc1cc(Nc2ncc3c(n2)-c2ccc(Cl)cc2C(c2c(F)cccc2OC)=NC3)ccc1C(=O)O [alisertib]
Method in brief: as §1

[15] = compound: COc1cc2nc(-c3cc(F)ccc3O)nc(N[C@@H]3CNC[C@H]3C(C)(C)O)c2cc1OC
Method in brief: as §1

[16] = compound: COc1cc2ncnc(Nc3ccc(F)c(Cl)c3)c2cc1OCCCN1CCOCC1 [gefitinib]
Method in brief: as §1

[17] = compound: COc1cccc2cc(-c3nc([C@H]4CC[C@H](C(=O)O)CC4)n4ncnc(N)c34)[nH]c12
Method in brief: as §1

[18] = compound: CS(=O)(=O)CCNCc1ccc(-c2ccc3ncnc(Nc4ccc(OCc5cccc(F)c5)c(Cl)c4)c3c2)o1 [lapatinib]
Method in brief: as §1

[19] = compound: CS(=O)(=O)N1CCN(Cc2cc3nc(-c4cccc5[nH]ncc45)nc(N4CCOCC4)c3s2)CC1 [pictilisib]
Method in brief: as §1

[20] = compound: CN1CC[C@H](c2c(O)cc(O)c3c(=O)cc(-c4ccccc4Cl)oc23)[C@H](O)C1 [alvocidib]
Method in brief: as §1

Target | log2 fold change [1] | log2 fold change [2] | log2 fold change [3] | log2 fold change [4] | log2 fold change [5] | log2 fold change [6] | log2 fold change [7] | log2 fold change [8] | log2 fold change [9] | log2 fold change [10] | log2 fold change [11] | log2 fold change [12] | log2 fold change [13] | log2 fold change [14] | log2 fold change [15] | log2 fold change [16] | log2 fold change [17] | log2 fold change [18] | log2 fold change [19] | log2 fold change [20]
PCGF2 (UniProt P35227) | inactive: -0.029 | inactive: 0.04 | inactive: 0.039 | inactive: -0.057 | inactive: -0.129 | inactive: 0.024 | inactive: 0.122 | inactive: 0.071 | inactive: 0.027 | inactive: -0.039 | inactive: 0.055 | inactive: 0.03 | inactive: -0.008 | inactive: 0.036 | inactive: 0.11 | inactive: 0.021 | inactive: 0.018 | inactive: -0.058 | inactive: -0.02 | 
PANK4 (UniProt Q9NVE7) | inactive: 0.02 | inactive: 0.154 | inactive: 0.001 | inactive: 0.02 | inactive: 0.009 | inactive: -0.032 | inactive: -0.067 | inactive: 0.013 | inactive: -0.025 | inactive: 0.091 | inactive: 0.009 | inactive: 0.182 | inactive: 0.198 | inactive: -0.073 | inactive: 0.174 | inactive: -0.045 | inactive: 0.041 | inactive: -0.054 | inactive: -0.031 | inactive: -0.029
PANK3 (UniProt Q9H999) | inactive: 0.018 | inactive: 0.045 | inactive: 0.064 | inactive: -0.014 |  | inactive: -0.401 | inactive: -0.018 | inactive: 0.028 |  |  | inactive: 0.008 | inactive: -0.066 | inactive: 0.152 |  | inactive: 0.084 | inactive: -0.01 |  | inactive: -0.03 | inactive: 0.079 | inactive: -0.087
PCID2 (UniProt Q5JVF3) | inactive: -0.164 | inactive: -0.22 | inactive: 0.006 | inactive: -0.033 | inactive: -0.281 | inactive: 0.051 | inactive: 0.008 | inactive: -0.036 | inactive: -0.101 | inactive: -0.136 | inactive: -0.025 | inactive: -0.07 |  | inactive: 0.087 | inactive: 0.009 | inactive: 0.039 | inactive: -0.023 | inactive: 0.175 | inactive: 0.013 | 
PC (UniProt P11498) | inactive: -0.088 | inactive: -0.033 | inactive: 0.001 | inactive: -0.023 | inactive: -0.113 | inactive: 0.043 | inactive: 0.09 | inactive: -0.044 | inactive: -0.076 | inactive: 0.05 | inactive: 0.08 | inactive: -0.04 | active: -0.372 | inactive: -0.039 | inactive: 0.14 | inactive: 0.024 | inactive: 0.014 | inactive: -0.011 | inactive: 0.09 | 
PARG (UniProt Q86W56) | inactive: 0.003 | inactive: -0.102 | inactive: 0.051 | inactive: -0.113 | inactive: -0.068 | inactive: 0.044 | inactive: 0.115 | inactive: 0.034 | inactive: -0.025 | inactive: 0.065 | inactive: -0.057 | inactive: 0.048 | inactive: -0.093 | inactive: -0.114 | inactive: 0.013 | inactive: 0.023 | inactive: 0.094 | inactive: 0.013 | inactive: -0.023 | 
PCTP (UniProt Q9UKL6) | inactive: 0.083 | inactive: -0.016 | inactive: -0.002 | inactive: 0 | inactive: -0.037 | inactive: -0.056 | inactive: 0.039 | inactive: -0.032 | inactive: 0.094 | inactive: -0.007 | inactive: -0.175 | inactive: -0.066 | inactive: 0.029 | inactive: -0.081 | active: -0.239 | inactive: -0.024 | inactive: -0.031 | inactive: 0.052 | active: 0.392 | 
PDCD2L (UniProt Q9BRP1) | inactive: -0.072 | inactive: -0.148 | inactive: 0.048 | inactive: 0 | inactive: -0.068 | inactive: 0.038 | inactive: -0.031 | inactive: 0.127 | inactive: -0.007 | inactive: 0.085 | inactive: 0.014 | inactive: -0.033 | inactive: -0.031 | inactive: -0.033 | inactive: 0 | inactive: -0.09 | inactive: -0.018 | inactive: -0.048 | inactive: -0.062 | 
PDS5A (UniProt Q29RF7) | inactive: -0.094 | active: -0.62 | inactive: -0.235 | inactive: 0.051 | inactive: -0.045 | inactive: -0.025 | inactive: 0.053 | inactive: 0.028 | inactive: 0.006 | inactive: 0.076 | inactive: -0.316 | inactive: -0.137 | inactive: -0.012 | inactive: 0.067 | inactive: 0.043 | inactive: -0.125 | inactive: -0.19 | inactive: -0.072 | inactive: -0.014 | 
PEX11B (UniProt O96011) | inactive: 0.052 | inactive: -0.009 | inactive: -0.021 | inactive: 0.001 | inactive: -0.042 | inactive: -0.006 | inactive: -0.022 | inactive: 0.024 | inactive: -0.041 | inactive: 0.021 | inactive: -0.038 | inactive: -0.009 | inactive: -0.076 | inactive: -0.071 | inactive: -0.063 | inactive: -0.037 | inactive: 0.019 | inactive: 0.023 | inactive: 0.004 | 
PBX2 (UniProt P40425) | inactive: 0.082 | inactive: -0.023 | inactive: -0.069 | inactive: -0.022 | inactive: -0.36 |  | inactive: -0.046 |  | inactive: -0.044 | inactive: 0.132 | inactive: -0.055 | inactive: 0.115 | inactive: 0.102 | inactive: -0.027 | inactive: -0.114 | inactive: -0.02 | inactive: 0 | inactive: 0.014 | inactive: 0.01 | 
PAFAH2 (UniProt Q99487) | inactive: 0.023 | inactive: -0.074 | inactive: -0.196 | inactive: -0.179 | inactive: -0.093 |  | inactive: -0.133 |  | inactive: -0.067 | inactive: -0.025 | inactive: -0.089 | inactive: 0.012 | inactive: 0.153 |  | inactive: 0.043 |  |  | inactive: -0.037 |  | 
PDS5B (UniProt Q9NTI5) | inactive: -0.134 | inactive: 0.039 | inactive: 0.14 | inactive: -0.169 | inactive: -0.101 | inactive: -0.088 | inactive: 0.014 | inactive: 0 | inactive: 0.032 | inactive: 0.065 | inactive: 0.104 | inactive: 0.037 | inactive: -0.07 | inactive: -0.05 | inactive: -0.188 | inactive: 0.123 | inactive: 0.078 | inactive: -0.206 | inactive: 0.066 | 
PAFAH1B3 (UniProt Q15102) | inactive: -0.109 | inactive: -0.034 | inactive: 0.026 | inactive: 0.001 | inactive: 0.021 | inactive: 0.049 | inactive: 0.002 | inactive: -0.006 | inactive: -0.071 | inactive: -0.01 | inactive: -0.024 | inactive: 0.037 | inactive: -0.033 | inactive: -0.044 | inactive: 0.03 | inactive: 0.043 | inactive: 0.057 | inactive: -0.054 | inactive: 0.079 | 
PELP1 (UniProt Q8IZL8) | inactive: -0.002 | inactive: -0.007 | inactive: -0.021 | inactive: -0.027 | inactive: -0.082 | inactive: -0.054 | inactive: -0.069 | inactive: -0.012 | inactive: 0.004 | inactive: -0.096 | inactive: -0.022 | inactive: 0.012 | inactive: 0.012 | inactive: -0.045 | inactive: -0.033 | inactive: -0.002 | inactive: 0.042 | inactive: 0.031 | inactive: -0.074 | 
PAFAH1B2 (UniProt P68402) | inactive: -0.016 | inactive: 0.097 | inactive: -0.058 | inactive: -0.029 | inactive: 0.022 | inactive: 0.037 | inactive: 0.078 | inactive: -0.006 | inactive: -0.026 | inactive: 0.044 | inactive: -0.074 | inactive: 0.007 | inactive: 0.082 | inactive: 0.02 | inactive: -0.071 | inactive: 0.086 | inactive: 0.033 | inactive: 0.029 | inactive: -0.28 | 
PCBP1 (UniProt Q15365) | inactive: 0.009 | inactive: -0.073 | inactive: 0.013 | inactive: -0.015 | inactive: -0.151 | inactive: -0.015 | inactive: 0.03 | inactive: 0.052 | inactive: -0.034 | inactive: 0.076 | inactive: -0.036 | inactive: 0.102 | inactive: -0.044 | inactive: -0.015 | inactive: -0.014 | inactive: -0.003 | inactive: -0.003 | inactive: -0.022 | inactive: -0.036 | 
PDSS2 (UniProt Q86YH6) | inactive: 0.159 | inactive: 0.218 | inactive: -0.013 | inactive: -0.019 | inactive: -0.076 | inactive: 0.07 | inactive: -0.025 | inactive: -0.154 | inactive: -0.042 | inactive: 0.23 | inactive: 0.025 | inactive: 0.184 | inactive: 0.157 |  | inactive: -0.286 | inactive: 0.15 |  | inactive: 0.162 | inactive: -0.038 | 

An excerpt of these results, as tab-separated lines.
Target	log2 fold change [1]	log2 fold change [2]	log2 fold change [3]	log2 fold change [4]	log2 fold change [5]	log2 fold change [6]	log2 fold change [7]	log2 fold change [8]	log2 fold change [9]	log2 fold change [10]	log2 fold change [11]	log2 fold change [12]	log2 fold change [13]	log2 fold change [14]	log2 fold change [15]	log2 fold change [16]	log2 fold change [17]	log2 fold change [18]	log2 fold change [19]	log2 fold change [20]
PEX11B (UniProt O96011)	inactive: 0.052	inactive: -0.009	inactive: -0.021	inactive: 0.001	inactive: -0.042	inactive: -0.006	inactive: -0.022	inactive: 0.024	inactive: -0.041	inactive: 0.021	inactive: -0.038	inactive: -0.009	inactive: -0.076	inactive: -0.071	inactive: -0.063	inactive: -0.037	inactive: 0.019	inactive: 0.023	inactive: 0.004	
PBX2 (UniProt P40425)	inactive: 0.082	inactive: -0.023	inactive: -0.069	inactive: -0.022	inactive: -0.36		inactive: -0.046		inactive: -0.044	inactive: 0.132	inactive: -0.055	inactive: 0.115	inactive: 0.102	inactive: -0.027	inactive: -0.114	inactive: -0.02	inactive: 0	inactive: 0.014	inactive: 0.01	
